This is one part of the list.
Columns and labels:
Experiment in all cases: log2 fold change, soluble protein after heating vs DMSO (PISA); higher = thermal stabilisation; K562 cells, 10 uM, 30 min; active = over 0.2 and 3.5 SD of the protein, either way, in both replicates (recomputed)
[1] = compound: C1=CC=C(C=C1)[C@H](COC2=CC3=C(C=C2)NC(=O)N3)NC(=O)C4=CC=CN(C4=O)CC5=CC(=C(C=C5)F)F
Outline: (§1)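 Soluble protein was defined as the supernatant after 21,000xg for 90 min. It came from K562 cells at 2×10^6 cells/mL given 10 μM compound for 30 min, heated in aliquots for 3 min across 48°C-58°C, pooled, and extracted in PBS with 0.5% NP-40 at 4°C, and was quantified by TMTpro 16plex LC-MS/MS with equalised channel sums. Thermal stability against control samples, from duplicates, is reported as log2 fold change.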

Chains of the proteins cited; added tags and fusions are not shown. Lines headed by an entry give the natural chain unless they say otherwise; changes in a name come on top.
UniProt Q3KRA9: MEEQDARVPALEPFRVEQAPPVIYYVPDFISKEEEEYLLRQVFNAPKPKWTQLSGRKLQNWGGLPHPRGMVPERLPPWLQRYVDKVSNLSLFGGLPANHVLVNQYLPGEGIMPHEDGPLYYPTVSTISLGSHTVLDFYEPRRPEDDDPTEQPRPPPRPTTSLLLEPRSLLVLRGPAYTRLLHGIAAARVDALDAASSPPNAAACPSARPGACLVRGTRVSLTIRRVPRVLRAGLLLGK
UniProt P05091: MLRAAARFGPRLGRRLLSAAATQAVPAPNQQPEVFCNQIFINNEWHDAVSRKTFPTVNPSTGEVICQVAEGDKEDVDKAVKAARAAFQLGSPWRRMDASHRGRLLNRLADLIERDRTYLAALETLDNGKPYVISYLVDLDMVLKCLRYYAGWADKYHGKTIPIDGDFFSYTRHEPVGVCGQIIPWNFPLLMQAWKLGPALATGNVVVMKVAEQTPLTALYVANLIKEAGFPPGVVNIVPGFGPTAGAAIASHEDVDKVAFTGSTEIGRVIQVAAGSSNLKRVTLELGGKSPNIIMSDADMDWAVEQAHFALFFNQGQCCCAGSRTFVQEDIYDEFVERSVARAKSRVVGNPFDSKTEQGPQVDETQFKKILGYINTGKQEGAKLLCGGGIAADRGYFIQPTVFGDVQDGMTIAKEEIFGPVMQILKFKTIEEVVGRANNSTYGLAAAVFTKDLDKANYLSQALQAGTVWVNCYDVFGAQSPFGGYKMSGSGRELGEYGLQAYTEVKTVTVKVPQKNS
UniProt Q02252: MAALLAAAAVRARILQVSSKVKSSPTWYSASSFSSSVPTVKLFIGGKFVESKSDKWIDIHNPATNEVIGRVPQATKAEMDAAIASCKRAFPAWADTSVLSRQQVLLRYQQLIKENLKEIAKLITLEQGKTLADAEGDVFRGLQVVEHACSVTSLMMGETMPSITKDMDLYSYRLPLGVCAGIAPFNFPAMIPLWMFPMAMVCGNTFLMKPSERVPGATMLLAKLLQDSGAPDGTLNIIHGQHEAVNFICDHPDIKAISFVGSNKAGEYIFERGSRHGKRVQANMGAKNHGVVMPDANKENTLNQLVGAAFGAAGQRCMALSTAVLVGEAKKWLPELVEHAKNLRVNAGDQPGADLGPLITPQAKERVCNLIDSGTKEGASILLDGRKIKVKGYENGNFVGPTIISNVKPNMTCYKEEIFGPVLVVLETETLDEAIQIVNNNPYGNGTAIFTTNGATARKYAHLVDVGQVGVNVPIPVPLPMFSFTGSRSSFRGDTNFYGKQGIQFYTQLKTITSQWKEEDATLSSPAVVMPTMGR
UniProt Q3SY69: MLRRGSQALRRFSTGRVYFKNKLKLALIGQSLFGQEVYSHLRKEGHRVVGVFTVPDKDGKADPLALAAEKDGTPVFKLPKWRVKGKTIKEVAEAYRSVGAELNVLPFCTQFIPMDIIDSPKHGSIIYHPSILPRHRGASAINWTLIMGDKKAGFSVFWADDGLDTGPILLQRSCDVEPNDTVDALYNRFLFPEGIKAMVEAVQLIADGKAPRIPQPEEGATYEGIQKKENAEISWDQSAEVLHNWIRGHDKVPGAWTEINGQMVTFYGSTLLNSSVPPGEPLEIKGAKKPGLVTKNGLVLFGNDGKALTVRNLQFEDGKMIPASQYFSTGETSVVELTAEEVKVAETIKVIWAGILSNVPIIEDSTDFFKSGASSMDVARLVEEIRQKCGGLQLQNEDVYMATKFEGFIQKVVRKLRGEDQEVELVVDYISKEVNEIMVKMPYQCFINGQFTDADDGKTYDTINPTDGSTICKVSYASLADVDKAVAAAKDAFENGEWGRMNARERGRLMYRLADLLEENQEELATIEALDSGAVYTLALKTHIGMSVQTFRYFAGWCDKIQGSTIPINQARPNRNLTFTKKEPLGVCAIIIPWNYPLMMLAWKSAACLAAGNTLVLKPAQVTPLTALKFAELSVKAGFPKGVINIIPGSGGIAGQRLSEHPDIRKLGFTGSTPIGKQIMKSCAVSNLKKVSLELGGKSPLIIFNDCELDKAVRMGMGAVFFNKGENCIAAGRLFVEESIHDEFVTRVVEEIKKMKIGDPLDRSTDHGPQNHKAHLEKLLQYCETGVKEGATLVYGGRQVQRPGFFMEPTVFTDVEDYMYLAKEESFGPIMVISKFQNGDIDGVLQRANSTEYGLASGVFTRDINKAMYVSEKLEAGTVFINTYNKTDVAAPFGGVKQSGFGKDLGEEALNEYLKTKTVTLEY
UniProt Q9UEY8: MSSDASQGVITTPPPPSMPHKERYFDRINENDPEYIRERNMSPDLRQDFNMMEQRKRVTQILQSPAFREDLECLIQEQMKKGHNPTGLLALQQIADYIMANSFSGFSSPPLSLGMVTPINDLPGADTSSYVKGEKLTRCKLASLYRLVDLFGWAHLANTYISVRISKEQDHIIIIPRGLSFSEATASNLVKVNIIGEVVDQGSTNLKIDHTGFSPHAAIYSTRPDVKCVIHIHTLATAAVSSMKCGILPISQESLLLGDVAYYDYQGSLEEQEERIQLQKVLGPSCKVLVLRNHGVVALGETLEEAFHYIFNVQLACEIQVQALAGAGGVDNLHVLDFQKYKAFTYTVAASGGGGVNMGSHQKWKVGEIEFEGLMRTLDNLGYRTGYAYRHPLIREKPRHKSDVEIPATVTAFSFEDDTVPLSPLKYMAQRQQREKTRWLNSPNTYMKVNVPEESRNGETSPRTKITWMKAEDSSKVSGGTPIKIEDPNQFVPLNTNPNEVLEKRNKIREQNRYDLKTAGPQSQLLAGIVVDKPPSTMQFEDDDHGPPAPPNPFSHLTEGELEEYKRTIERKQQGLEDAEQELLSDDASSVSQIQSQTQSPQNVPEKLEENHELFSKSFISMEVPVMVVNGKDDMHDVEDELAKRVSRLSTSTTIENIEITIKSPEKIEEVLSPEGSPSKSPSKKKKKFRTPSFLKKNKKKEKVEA
UniProt Q9ULX6: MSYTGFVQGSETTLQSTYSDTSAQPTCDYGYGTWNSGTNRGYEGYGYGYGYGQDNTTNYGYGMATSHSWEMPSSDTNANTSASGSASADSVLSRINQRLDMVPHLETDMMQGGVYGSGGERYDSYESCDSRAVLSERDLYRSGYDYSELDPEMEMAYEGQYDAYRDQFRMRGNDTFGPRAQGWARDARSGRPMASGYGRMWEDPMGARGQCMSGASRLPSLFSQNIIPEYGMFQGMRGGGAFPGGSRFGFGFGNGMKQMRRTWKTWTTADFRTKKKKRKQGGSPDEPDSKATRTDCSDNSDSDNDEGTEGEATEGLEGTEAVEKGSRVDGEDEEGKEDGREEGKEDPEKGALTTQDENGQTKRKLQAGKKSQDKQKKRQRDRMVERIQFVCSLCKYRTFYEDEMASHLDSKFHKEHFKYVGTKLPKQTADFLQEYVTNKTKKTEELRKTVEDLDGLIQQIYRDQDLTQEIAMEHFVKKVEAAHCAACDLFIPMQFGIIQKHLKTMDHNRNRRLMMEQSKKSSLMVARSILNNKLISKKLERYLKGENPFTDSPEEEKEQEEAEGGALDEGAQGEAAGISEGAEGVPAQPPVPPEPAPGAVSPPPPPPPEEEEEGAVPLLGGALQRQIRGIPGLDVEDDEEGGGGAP
UniProt Q02952: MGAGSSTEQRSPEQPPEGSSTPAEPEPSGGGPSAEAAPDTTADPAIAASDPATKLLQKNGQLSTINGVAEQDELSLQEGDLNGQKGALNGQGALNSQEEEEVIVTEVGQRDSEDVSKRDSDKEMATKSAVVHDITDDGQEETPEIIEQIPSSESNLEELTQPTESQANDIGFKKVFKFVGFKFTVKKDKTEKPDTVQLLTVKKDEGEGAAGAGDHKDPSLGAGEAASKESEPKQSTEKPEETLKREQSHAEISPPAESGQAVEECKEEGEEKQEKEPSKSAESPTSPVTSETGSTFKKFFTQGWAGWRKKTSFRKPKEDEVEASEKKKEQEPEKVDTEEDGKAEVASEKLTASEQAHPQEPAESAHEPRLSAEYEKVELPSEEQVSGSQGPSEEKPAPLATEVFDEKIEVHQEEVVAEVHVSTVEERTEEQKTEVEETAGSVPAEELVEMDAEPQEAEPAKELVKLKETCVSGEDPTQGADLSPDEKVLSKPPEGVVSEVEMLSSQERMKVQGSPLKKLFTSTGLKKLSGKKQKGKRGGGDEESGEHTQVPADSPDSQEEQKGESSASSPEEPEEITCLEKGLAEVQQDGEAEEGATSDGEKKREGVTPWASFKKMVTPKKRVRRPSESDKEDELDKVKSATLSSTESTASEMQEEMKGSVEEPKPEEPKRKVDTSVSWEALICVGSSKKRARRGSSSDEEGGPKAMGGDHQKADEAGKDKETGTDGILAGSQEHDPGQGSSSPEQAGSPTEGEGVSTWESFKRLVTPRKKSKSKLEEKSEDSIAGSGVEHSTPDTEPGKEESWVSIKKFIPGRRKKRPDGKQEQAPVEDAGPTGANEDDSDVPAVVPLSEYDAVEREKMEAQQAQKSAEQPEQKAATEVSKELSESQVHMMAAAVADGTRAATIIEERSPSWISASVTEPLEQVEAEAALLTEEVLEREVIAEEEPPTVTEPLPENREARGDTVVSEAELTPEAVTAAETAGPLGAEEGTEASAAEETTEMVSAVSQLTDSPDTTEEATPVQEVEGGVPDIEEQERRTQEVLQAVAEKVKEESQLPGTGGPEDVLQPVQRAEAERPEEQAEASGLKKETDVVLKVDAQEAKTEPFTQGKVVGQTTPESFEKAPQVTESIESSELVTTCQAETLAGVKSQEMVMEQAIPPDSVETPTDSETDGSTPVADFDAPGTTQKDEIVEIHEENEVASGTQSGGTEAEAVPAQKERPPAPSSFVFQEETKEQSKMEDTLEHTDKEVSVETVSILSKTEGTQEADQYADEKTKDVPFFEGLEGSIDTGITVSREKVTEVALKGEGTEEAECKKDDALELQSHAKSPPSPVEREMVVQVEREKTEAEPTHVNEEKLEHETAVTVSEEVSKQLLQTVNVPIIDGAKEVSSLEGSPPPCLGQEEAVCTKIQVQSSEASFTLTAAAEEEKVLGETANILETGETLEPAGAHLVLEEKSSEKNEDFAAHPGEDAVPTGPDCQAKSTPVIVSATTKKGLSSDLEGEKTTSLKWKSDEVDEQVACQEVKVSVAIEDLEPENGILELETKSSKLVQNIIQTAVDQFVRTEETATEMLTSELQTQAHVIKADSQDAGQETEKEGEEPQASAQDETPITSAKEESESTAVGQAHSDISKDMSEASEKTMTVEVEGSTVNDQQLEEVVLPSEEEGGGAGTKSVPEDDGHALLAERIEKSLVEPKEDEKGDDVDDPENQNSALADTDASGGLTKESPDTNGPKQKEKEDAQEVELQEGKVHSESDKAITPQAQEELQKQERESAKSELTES
UniProt O00116: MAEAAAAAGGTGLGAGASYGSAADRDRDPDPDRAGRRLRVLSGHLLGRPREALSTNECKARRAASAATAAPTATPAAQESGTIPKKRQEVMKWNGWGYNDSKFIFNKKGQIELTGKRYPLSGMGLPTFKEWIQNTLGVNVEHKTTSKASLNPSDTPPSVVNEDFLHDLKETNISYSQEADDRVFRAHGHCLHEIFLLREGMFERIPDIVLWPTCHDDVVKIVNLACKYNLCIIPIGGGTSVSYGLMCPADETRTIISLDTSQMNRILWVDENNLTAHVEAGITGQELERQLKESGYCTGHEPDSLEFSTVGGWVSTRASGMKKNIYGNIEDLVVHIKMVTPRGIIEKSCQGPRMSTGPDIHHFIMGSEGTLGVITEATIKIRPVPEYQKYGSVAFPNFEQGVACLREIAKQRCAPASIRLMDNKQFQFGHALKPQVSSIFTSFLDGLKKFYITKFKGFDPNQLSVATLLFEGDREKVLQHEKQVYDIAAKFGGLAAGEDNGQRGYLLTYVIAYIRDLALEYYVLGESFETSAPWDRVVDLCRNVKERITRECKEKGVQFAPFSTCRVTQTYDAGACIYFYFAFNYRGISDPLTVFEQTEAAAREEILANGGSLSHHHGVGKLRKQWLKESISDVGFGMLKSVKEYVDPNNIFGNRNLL
UniProt P31749: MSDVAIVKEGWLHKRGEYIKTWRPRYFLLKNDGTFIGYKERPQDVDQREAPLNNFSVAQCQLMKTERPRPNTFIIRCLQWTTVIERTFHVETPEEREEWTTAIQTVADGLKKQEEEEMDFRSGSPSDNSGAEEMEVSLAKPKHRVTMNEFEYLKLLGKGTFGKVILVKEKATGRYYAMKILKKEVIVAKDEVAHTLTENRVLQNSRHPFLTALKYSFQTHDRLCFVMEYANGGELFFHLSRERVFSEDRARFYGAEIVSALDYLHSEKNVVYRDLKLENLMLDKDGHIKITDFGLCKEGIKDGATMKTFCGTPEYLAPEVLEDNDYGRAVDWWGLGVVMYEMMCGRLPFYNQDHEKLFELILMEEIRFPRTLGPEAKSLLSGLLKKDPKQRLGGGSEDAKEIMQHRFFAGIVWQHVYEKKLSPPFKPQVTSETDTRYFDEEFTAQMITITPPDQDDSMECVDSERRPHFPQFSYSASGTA

[2] = compound: CC1=C(SC2=C1C(=N[C@H](C3=NN=C(N32)C)CC(=O)N)C4=CC=C(C=C4)Cl)C
Outline: as §1

[3] = compound: CC1=C2C(=CC=C1)N=C(N(C2=O)C3=CC=CC=C3C)CN4C=NC5=C(N=CN=C54)N
Outline: as §1

[4] = compound: Cc1sc2c(c1C)C(c1ccc(Cl)cc1)=N[C@@H](CC(=O)OC(C)(C)C)c1nnc(C)n1-2
Outline: as §1

[5] = compound: c1ccc([C@@H]2C[C@H]2NC2CCNCC2)cc1
Outline: as §1

Measured: log2 fold change

ALKBH6 isoform 2 (UniProt Q3KRA9)
inactive: [1] -0.004 | [2] 0.072 | [3] 0.031 | [4] -0.026 | [5] 0.133

ALDH2 (UniProt P05091)
inactive: [1] 0.009 | [2] 0.065 | [3] 0.032 | [4] -0.043 | [5] -0.001

ALDH6A1 (UniProt Q02252)
inactive: [1] 0.082 | [2] 0.124 | [3] 0.128 | [4] -0.07 | [5] 0.019

ALDH1L2 (UniProt Q3SY69)
inactive: [1] -0.132 | [2] 0.098 | [3] 0 | [4] 0.02 | [5] -0.031

ADD3 (UniProt Q9UEY8)
inactive: [1] 0.019 | [2] 0.034 | [3] 0.023 | [4] -0.002 | [5] 0.029

AKAP8L (UniProt Q9ULX6)
inactive: [1] -0.011 | [2] -0.186 | [3] 0.054 | [4] -0.047 | [5] 0.043

AKAP12 (UniProt Q02952)
inactive: [1] 0.078 | [2] 0.028 | [3] -0.005 | [4] 0.028 | [5] 0.021

AGPS (UniProt O00116)
inactive: [1] -0.046 | [2] 0.081 | [3] 0.079 | [4] -0.031 | [5] -0.051

2 consecutive entries already listed, quoted:
ADD3 (UniProt Q9UEY8)
inactive: [1] 0.019 | [2] 0.034 | [3] 0.023 | [4] -0.002 | [5] 0.029

AKAP8L (UniProt Q9ULX6)
inactive: [1] -0.011 | [2] -0.186 | [3] 0.054 | [4] -0.047 | [5] 0.043

Following part:

AKT1 (UniProt P31749)
inactive: [1] -0.068 | [2] 0.018 | [3] 0.034 | [4] 0.042 | [5] -0.072

— the supplement of paper PMC10849652
